Consider 31 molecules from the supplement of paper PMC4635364.

The test system of assay [1] is ReNCell VM. Briefly: neuronal differentiation score (DCX+ cell fraction vs untreated, manual image score) (score (-3 to 3)); higher = more neuronal differentiation. The conditions noted are these: 2 uM, 2 weeks.
Assay [2] relates to ReNCell VM. Kind of assay: dopaminergic neuron differentiation score (TH+ cell fraction vs untreated, manual image score) (score (0 to 3)); higher = more TH+ dopaminergic neuron differentiation. The conditions noted are these: 2 uM, 4 weeks, BDNF 10 ng/ml + GDNF 10 ng/ml.

Structures are written as SMILES. Counter-ions that a name gives are not always drawn. The list shows a part of the results. Repeats in this data set agree poorly, so a single value says little.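 Human fetal ventral-midbrain neural progenitor line ReNCell VM, differentiated without mitogens. Images stained for doublecortin (early neurons) or tyrosine hydroxylase (dopaminergic neurons) were scored by blinded raters against untreated wells (0 = no change). Repeats and both raters were averaged, and compounds averaging 2 or higher were picked as hits for retesting.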

As for `Cc1onc(-c2c(Cl)cccc2Cl)c1C(=O)N[C@@H]1C(=O)N2[C@@H]1SC(C)(C)[C@@H]2C(=O)O`, in assay [1] (library: Spectrum), the neuronal differentiation score was inactive: 0. The “dopaminergic neuron differentiation score” value in assay [2] (library: Spectrum) is inactive: 0.
Regarding `C=CCc1cccc(/C=N/NC(=O)CN2CCN(Cc3ccccc3)CC2)c1O`, the neuronal differentiation score in assay [1] (library: Tocriscreen) was inactive: 0. Also, in assay [2] (library: Tocriscreen), the “dopaminergic neuron differentiation score” value is inactive: 0.
For the molecule `CN[C@@H]1[C@H](O[C@H]2[C@H](O[C@H]3[C@H](O)[C@@H](O)[C@H](NC(=N)N)[C@@H](O)[C@@H]3NC(=N)N)O[C@@H](C)[C@]2(O)CO)O[C@@H](CO)[C@H](O)[C@H]1O` [Dihydrostreptomycin sulfate], the neuronal differentiation score in assay [1] (library: Prestwick) is inactive: 0. In assay [2] (library: Prestwick), the “dopaminergic neuron differentiation score” value was inactive: 0.
Regarding `CC(=O)O[C@@H]1C[C@H]2C(C)(C)[C@H](O)C[C@H](O)[C@]2(C)[C@H]2CC[C@@]3(C)[C@H](c4ccoc4)OC(=O)[C@H]4O[C@]43[C@@]21C`, the neuronal differentiation score in assay [1] (library: Spectrum) is inactive: 0. Moreover, in assay [2] (library: Spectrum), the “dopaminergic neuron differentiation score” value is inactive: 0.
For `O=C1CN(/N=C/c2ccc(-c3ccc([N+](=O)[O-])cc3)o2)C(=O)N1`, the neuronal differentiation score in assay [1] (library: Spectrum) was inactive: 0. Further, the “dopaminergic neuron differentiation score” value in assay [2] (library: Spectrum) is inactive: 0.
Take `CC(=O)O[C@@H]1CC2C(C)(C)[C@H](O)C=C[C@]2(C)C2CC[C@@]3(C)[C@H](c4ccoc4)OC(=O)C4OC43[C@@]21C` (some centres not stated): the neuronal differentiation score in assay [1] (library: Spectrum) is inactive: 0. In assay [2] (library: Spectrum), the “dopaminergic neuron differentiation score” value is inactive: 0.
Take `COc1ccc(-c2cc(=O)c3c(O)cc(O[C@@H]4O[C@H](CO[C@@H]5O[C@@H](C)[C@H](O)[C@@H](O)[C@H]5O)[C@@H](O)[C@H](O)[C@H]4O)cc3o2)cc1O`: the neuronal differentiation score in assay [1] (library: Spectrum) is inactive: 0. Besides, the “dopaminergic neuron differentiation score” value in assay [2] (library: Spectrum) was inactive: 0.
For the molecule `C[C@H](Cn1cnc2c(N)ncnc21)OCP(=O)(O)O`, the neuronal differentiation score in assay [1] (library: Spectrum) is inactive: 0. Besides, the “dopaminergic neuron differentiation score” value in assay [2] (library: Spectrum) is inactive: 0.
As to `CNC1CCc2cc(OC)c(OC)c(OC)c2-c2ccc(O)c(=O)cc21` (configuration not stated) [demecolceine], in assay [1] (library: Natural), the neuronal differentiation score was inactive: 0. In assay [2] (library: Natural), the “dopaminergic neuron differentiation score” value was inactive: 0.
Consider `CC(C)C[C@H](NC(=O)[C@@H](O)[C@H](N)Cc1ccccc1)C(=O)O` [Bestatin], for which the neuronal differentiation score in assay [1] (library: Tocriscreen) is inactive: 0. Moreover, the “dopaminergic neuron differentiation score” value in assay [2] (library: Tocriscreen) is inactive: 0.
Turning to `C[C@]12CCC(=O)C=C1CC[C@@H]1[C@@H]2[C@@H](O)C[C@@]2(C)[C@H]1CC[C@]2(O)C(=O)CO` [Hydrocortisone], the neuronal differentiation score in assay [1] (library: LOPAC) was inactive: 1. The “dopaminergic neuron differentiation score” value in assay [2] (library: LOPAC) was inactive: 0.
For the molecule `O=C(O)Cc1sc(-c2ccccc2)nc1-c1ccc(Cl)cc1` [Fentiazac], the neuronal differentiation score in assay [1] (library: Prestwick) was inactive: 0. Also, the “dopaminergic neuron differentiation score” value in assay [2] (library: Prestwick) is inactive: 0.
In the case of `CC(=O)OCC(=O)NCCCOc1cccc(CN2CCCCC2)c1` [Roxatidine Acetate HCl], in assay [1] (library: Prestwick), the neuronal differentiation score is inactive: 0. Also, in assay [2] (library: Prestwick), the “dopaminergic neuron differentiation score” value is inactive: 0.
With `C=C[C@@]1(C)CC(=O)[C@@]2(O)[C@](C)(O1)[C@@H](O)[C@@H](O)C1C(C)(C)CC[C@H](O)[C@@]12C` (some centres not stated), the neuronal differentiation score in assay [1] (library: Spectrum) is inactive: 0. The “dopaminergic neuron differentiation score” value in assay [2] (library: Spectrum) is inactive: 0.
For `Nc1cc(=O)[nH]c(N)n1` [2,4-Diamino-6-pyrimidinone], in assay [1] (library: LOPAC), the neuronal differentiation score is inactive: 0. Further, the “dopaminergic neuron differentiation score” value in assay [2] (library: LOPAC) is inactive: 0.
On to `CC(=O)Nc1ccc(S(=O)(=O)c2ccc(NC(C)=O)cc2)cc1`, for which the neuronal differentiation score in assay [1] (library: Spectrum) is inactive: 0. The “dopaminergic neuron differentiation score” value in assay [2] (library: Spectrum) was inactive: 0.
Consider `CCCCCNC(=N)N/N=C/c1c[nH]c2ccc(OC)cc12`, for which the neuronal differentiation score in assay [1] (library: Spectrum) was inactive: 0. The “dopaminergic neuron differentiation score” value in assay [2] (library: Spectrum) was inactive: 0.
On to `C[C@](N)(Cc1ccc(O)c(O)c1)C(=O)O`, for which the neuronal differentiation score in assay [1] (library: Spectrum) is inactive: 0. Moreover, the “dopaminergic neuron differentiation score” value in assay [2] (library: Spectrum) is inactive: 0.
Turning to `COC(=O)/C=C/c1cc(O)ccc1O` [Methyl 2,5-dihydroxycinnamate], the neuronal differentiation score in assay [1] (library: Tocriscreen) is inactive: 0. For the same molecule, the “dopaminergic neuron differentiation score” value in assay [2] (library: Tocriscreen) is inactive: 0.
Turning to `CC1CCc2c(N3CCC(O)CC3)c(F)cc3c(=O)c(C(=O)O)cn1c23` (configuration not stated) [Nadifloxacin], in assay [1] (library: Prestwick), the neuronal differentiation score was inactive: 0. Also, the “dopaminergic neuron differentiation score” value in assay [2] (library: Prestwick) is inactive: 0.
For the molecule `O=c1ccc2ccc(O[C@@H]3O[C@H](CO)[C@@H](O)[C@H](O)[C@H]3O)c(O)c2o1` [daphnin], the neuronal differentiation score in assay [1] (library: Natural) was inactive: 0. In addition, in assay [2] (library: Natural), the “dopaminergic neuron differentiation score” value is inactive: 0.
Consider `CC(=O)[C@H]1CC[C@H]2[C@@H]3C[C@H](C)C4=CC(=O)CC[C@]4(C)[C@H]3[C@@H](O)C[C@]12C` [Medrysone], for which the neuronal differentiation score in assay [1] (library: Prestwick) is inactive: 0. Further, the “dopaminergic neuron differentiation score” value in assay [2] (library: Prestwick) was inactive: 0.
Regarding `CN(C/C=C/c1ccccc1)Cc1cccc2ccccc12`, the neuronal differentiation score in assay [1] (library: Spectrum) was inactive: 0. Moreover, the “dopaminergic neuron differentiation score” value in assay [2] (library: Spectrum) was inactive: 0.
For `COc1cccc(OC)c1OCCNCC1COc2ccccc2O1` (configuration not stated) [WB-4101 hydrochloride], the neuronal differentiation score in assay [1] (library: LOPAC) is inactive: 0. For the same molecule, in assay [2] (library: LOPAC), the “dopaminergic neuron differentiation score” value is inactive: 0.
Take `Cc1ccc(Cl)c(Nc2ccccc2C(=O)O)c1Cl` [Meclofenamic acid sodium]: the neuronal differentiation score in assay [1] (library: LOPAC) was inactive: 0. Moreover, in assay [2] (library: LOPAC), the “dopaminergic neuron differentiation score” value is inactive: 0.
Turning to `O=C1C(O)=C([C@H]2CC[C@H](c3ccc(Cl)cc3)CC2)C(=O)c2ccccc21`, the neuronal differentiation score in assay [1] (library: Spectrum) was inactive: 0. Besides, the “dopaminergic neuron differentiation score” value in assay [2] (library: Spectrum) was inactive: 0.
On to `Cn1nnc2c(C(N)=O)ncn2c1=O`, for which the neuronal differentiation score in assay [1] (library: Spectrum) is inactive: 0. In addition, in assay [2] (library: Spectrum), the “dopaminergic neuron differentiation score” value was inactive: 0.
With `C[C@H]1O[C@H](O[C@H]2[C@H](O)[C@@H](O)[C@@H](O[C@H]3[C@H](O)[C@@H](O)C(O)O[C@@H]3CO)O[C@@H]2CO)[C@H](O)[C@@H](O)[C@@H]1N[C@H]1C=C(CO)[C@@H](O)[C@H](O)[C@H]1O` (some centres not stated), in assay [1] (library: Spectrum), the neuronal differentiation score was inactive: 0. The “dopaminergic neuron differentiation score” value in assay [2] (library: Spectrum) is inactive: 0.
Regarding `O=C(O)CCC(=O)Nc1ccc(S(=O)(=O)Nc2nccs2)cc1`, the neuronal differentiation score in assay [1] (library: Spectrum) was inactive: 0. The “dopaminergic neuron differentiation score” value in assay [2] (library: Spectrum) was inactive: 0.
As for `NC(=O)C1=CN(C2OC(COP(=O)(O)OP(=O)(O)OC[C@H]3O[C@@H](n4cnc5c(N)ncnc54)C(OP(=O)(O)O)[C@H]3O)C(O)C2O)C=CC1` (some centres not stated) [NADPH tetrasodium], in assay [1] (library: LOPAC), the neuronal differentiation score is inactive: 0. Further, the “dopaminergic neuron differentiation score” value in assay [2] (library: LOPAC) is inactive: 0.
As for `O=C(O)C[C@H](O)C[C@H](O)/C=C/c1c(C2CC2)nc2ccccc2c1-c1ccc(F)cc1`, the neuronal differentiation score in assay [1] (library: Spectrum) is inactive: 1. The “dopaminergic neuron differentiation score” value in assay [2] (library: Spectrum) is inactive: 0.
